## Percent effect of library compounds

Measurements from “University of Dundee, Small-Polar-MMV Screening Library” (2021), ChEMBL document CHEMBL3988442.

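Assay of Toxoplasma gondii numbers, read through their beta-galactosidase reporter with a colour substrate. Concentration: 10 µM. Higher reads as fewer parasites (inferred from which compounds were picked for retests). Size under these conditions: about 67,000 compounds, about 260 of them at 50% or above in at least one test.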

Results are given as percent effect. The record does not define 0% and 100%; most values in the screen are far below 50% and negative numbers occur (in some assays of this library far below -100). Compounds were drawn at random from those tested, without regard to their results.

| SMILES | effect |
|---|---|
| `COc1ccc(CNCc2c(C)nn(C)c2N2CCOCC2)cc1` | -4.666 |
| `CN(Cc1ccsc1)C(=O)c1cccc(NS(C)(=O)=O)c1` | 3.706 |
| `CN(Cc1cc[nH]n1)C(C(=O)O)c1ccc(Cl)cc1` (centres undefined) | 2.363 |
| `CCS(=O)(=O)c1ccccc1C(=O)NCC1Cc2ccccc2O1` (centres undefined) | 13.65 |
| `CC(C)=CCC1(CO)CCCN(Cc2cnc(N3CCOCC3)nc2)C1` (centres undefined) | 1.935 |
| `O=C(NCC1(N2CCOCC2)CCSC1)Nc1ccc(F)cc1` (centres undefined) | -1.962 |
| `Cc1nc(C)n(CC2CN(CCCOc3ccccc3C)CCO2)n1` (centres undefined) | -6.933 |
| `CC(C)c1nccn1CCC(=O)NCC(C)(O)c1ccco1` (centres undefined) | -0.0612 |
| `CCN(CC)S(=O)(=O)c1cc(Br)ccc1OC` | 0.8032 |
| `Cc1ccc2ncnc(N3CCOCC3c3c(C)nn(C)c3C)c2c1` (centres undefined) | -3.304 |
| `CCc1ccc(C2CCCCCN2C(=O)CNC(=O)C2CC2)o1` (centres undefined) | -0.8738 |
| `O=C(O)C(F)(F)F.O=S(=O)(Cc1ccccc1)N1CCCn2cnc(CN3CCCC3)c2C1` | 2.885 |
| `Cn1nc2c(cc1=O)CN(Cc1coc(-c3cccs3)n1)CC2` | -1.436 |
| `CC(C)c1cc(NCc2csc(C(C)C)n2)nc(N)n1` | 13.57 |
| `Cc1cc(CNC(=O)CCCN2CCCCC2)n(C)n1` | 7.092 |
| `Cc1nc(C)n(CC2CN(CCCc3ccccc3)CCO2)n1` (centres undefined) | -0.7649 |
| `CC(C)N1CCN(C(=O)c2ccccc2NCc2cccnc2)CC1` | 5.081 |
| `CN(C)CCCN1CC2(CCN(C3CCCOC3)CC2)OC1=O` (centres undefined) | 23.28 |
| `Cc1ccc(Cc2cnc(C3CCNCC3)cn2)cc1.Cl` | -15.98 |
| `O=C(c1c2c(NCC3CC3)ncnc2n2ccccc12)N1CCOCC1` | 5.571 |
| `CCNc1cc2c(nn1)CCN(C(=O)c1ccnc(C)n1)C2` | 12.01 |
| `Cc1cnn(C2CCCN(C(=O)c3ccc(Cn4ccnc4)cc3)C2)c1` (centres undefined) | 16.55 |
| `O=C(Cn1ccc2ccccc21)NCc1cc(N2CCOCC2)ncn1` | 2.973 |
| `CS(=O)(=O)N1CCC(CSc2ccccc2)C1` (centres undefined) | 24.71 |
| `[H][C@]12CN(c3cnn(C)c3)C(=O)[C@@]1([H])CN(S(=O)(=O)C1CC1)C2` | -4.045 |
| `Cc1nc2c(c(=O)n1C)CN(C(=O)C1CCCN(C(N)=O)C1)C2` (centres undefined) | 18.25 |
| `CC(C)(C)c1nnc(CN(Cc2cccs2)CC2CCCO2)o1` (centres undefined) | 0.5682 |
| `Cc1nccn1C1CCCN(C(=O)c2ccc3nncn3c2)C1` (centres undefined) | 6.473 |
| `Cc1cccc(CN2CCC3(CC2)CC(Oc2cccnc2)C3)n1.O=C(O)C(F)(F)F.O=C(O)C(F)(F)F` | 0.4854 |
| `COc1nn(C)cc1C(=O)NCC(=O)Nc1cccnc1` | -3.089 |
| `NC(=O)CN(CC(=O)NCCc1c(F)cccc1F)C1CCCC1` | 2.217 |
| `CC(C)C1=NOC(c2nc(Cc3ccccc3)no2)C1` (centres undefined) | 10.21 |
| `CCN(CC1CCOCC1)C(=O)C1CC(=O)N(Cc2cccnc2)C1` (centres undefined) | 20.17 |
| `Cc1cccc(C(=O)N2CCCn3c(CN4CCCCC4)nnc3C2)c1` | 4.351 |
| `COC(=O)c1sccc1S(=O)(=O)NCC1(O)CCOc2ccccc21` (centres undefined) | -1.861 |
| `CCc1nncn1CCNC(=O)Nc1ccc2c(c1)CCCO2` | 1.321 |
| `O=C(O)C(F)(F)F.[H][C@@]12CCCO[C@]1([H])[C@H](OC)CN2S(=O)(=O)c1cn(C)cn1` | -6.456 |
| `CSCC(=O)NC1CC(=O)N(CCc2ccccc2)C1` (centres undefined) | 7.093 |
| `Cc1nc(C)c(CC(=O)N2CCC(Oc3ccccc3)CC2)c(=O)[nH]1` | 16.01 |
| `CC1(Cc2ccc3c(c2)OCO3)CCCN(S(=O)(=O)N2CCCC2)C1` (centres undefined) | 5.701 |
| `COc1ccc(-c2csc(-c3cccc(C(=O)O)c3)n2)cc1OC` | 13.47 |
| `NC(=O)c1ccccc1NC(=O)CCN1CCN(CCO)CC1` | -3.714 |
| `CC(CNC(=O)CCc1ccco1)N1CCc2sccc2C1` (centres undefined) | 5.238 |
| `O=C1CN(S(=O)(=O)CC(F)(F)F)CC(O)CN1CCCc1ccccc1` (centres undefined) | 14.78 |
| `COC(=O)CN(C)Cc1cc(Br)cs1` | -21.84 |
| `CC(NC(=O)NCc1cccc(F)c1)(C(=O)O)c1ccco1` (centres undefined) | 3.143 |
| `Cc1cc(N2CCC(N(C)C(=O)c3ccccc3)CC2)nc(C)n1` | -1.423 |
| `O=C(O)C(F)(F)F.O=C(O)C(F)(F)F.[H][C@@]12COC[C@]1(CNC(=O)c1ccno1)CN(Cc1cccc(C)n1)C2` | 1.367 |
| `Cn1ccnc1C1CCN(C(=O)COCC(F)(F)C(F)F)CC1` | -12.07 |
| `COc1cc(OC)cc(C2(O)CCN(Cc3nc(C)c(C)o3)CC2)c1` | 0.02593 |
| `Cn1cc(Br)c(=O)c(NS(=O)(=O)c2ccc(Cl)cc2)c1` | 9.521 |
| `COc1ccc2c(ccn2CCC(=O)O)c1` | -5.021 |
| `OC(CN1CCC(c2ccn[nH]2)CC1)c1cccc(C(F)(F)F)c1` (centres undefined) | -0.571 |
| `CC(C)NC(=O)c1noc2c1CN(Cc1cnn(C)c1)CC2` | -11.63 |
| `Cc1cccc(CN2CCC3(CCCN(C(=O)NC4CC4)C3)C2=O)n1.O=C(O)C(F)(F)F` (centres undefined) | -3.437 |
| `O=C(Nc1ccc(Br)cc1F)c1cc(CN2CCOCC2)on1` | 6.354 |
| `CCn1cc(C(=O)NCc2ccc3c(c2)OCO3)c(C)n1` | 0.2016 |
| `COc1ccc(F)cc1C(=O)N(C)Cc1cc(C)on1` | -5.188 |
| `CC(=O)N1CCN(C(=O)NC(C)C)CC2(CNC(=O)C2)C1` (centres undefined) | -16.59 |
| `O=C(NC1CC1)c1cc2c(nc1O)CC(c1cccs1)CC2=O` (centres undefined) | -10.97 |
| `Cc1cc(NC2CCc3ncnn3C2)n2ncnc2n1` (centres undefined) | 9.393 |
| `[H][C@@]12CCN(CC3CCOCC3)C[C@@]1([H])O[C@@H](C)C2` | -2.092 |
| `COCCN1CCC(CNC(=O)C2(c3cc(C)cc(C)c3)CCC2)C1` (centres undefined) | -3.453 |
| `CN1CCN(C2COC3(CCN(CC4CC4)CC3)C2)CC1.O=C(O)C(F)(F)F.O=C(O)C(F)(F)F.O=C(O)C(F)(F)F` (centres undefined) | -0.7979 |
| `COc1ccc(C(O)CNC(=O)NCc2c(C)cc(C)[nH]c2=O)cc1` (centres undefined) | -17.23 |
| `COc1cc(CNC(=O)Nc2cc(C(F)(F)F)c[nH]c2=O)ccn1` | -10.73 |
| `O=C(NS(=O)(=O)c1cccnc1)C1CC(c2ccccc2)=NO1` (centres undefined) | 6.494 |
| `CC(C)(C)c1cc(C(=O)NCCn2nc3ccccn3c2=O)[nH]n1` | 2.806 |
| `CNC(=O)C(NC(=O)CCc1cccc(OC2CCCC2)c1)C(C)C` (centres undefined) | -9.311 |
| `Cc1nc(C(C)C)ncc1C(=O)N1CCC(c2ccccc2C(=O)O)C1` (centres undefined) | -25.21 |
| `CCc1ccc(C(C)NCc2nccn2Cc2ccccc2)o1` (centres undefined) | 3.698 |
| `O=C(NCCc1coc(-c2ccc(F)cc2)n1)NC1CC1` | -9.741 |
| `O=C(Cn1ccc2c(Cl)cccc21)N1CCCC1` | -15.06 |
| `O=C(O)C(F)(F)F.[H][C@@]12CN(CC3CCCCC3)C[C@]1([H])OCCN2c1ncc(F)cn1` | 44.86 |
| `Cc1cc(C(=O)N2CCN(C)CC2)nn1CC(=O)NCc1ccccn1.Cl` | 14.8 |
| `O=C1CC(C(=O)Nc2nnc(-c3ccoc3)[nH]2)c2ccccc2N1` (centres undefined) | -1.363 |
| `CN(Cc1nc2c(cnn2C)c(=O)[nH]1)Cc1ccco1` | -5.312 |
| `COc1cccc2ccn(CCC(=O)N3CCCC(C(=O)O)C3)c12` (centres undefined) | 0.6536 |
| `Cc1cccc(N2CC3(CCN(Cc4nccn4C)C3)CC2=O)c1.O=C(O)C(F)(F)F` (centres undefined) | -2.934 |

7 of the entries, repeated:

* Cc1cccc(CN2CCC3(CCCN(C(=O)NC4CC4)C3)C2=O)n1.O=C(O)C(F)(F)F (centres undefined) | -3.437%
* COc1cc(OC)cc(C2(O)CCN(Cc3nc(C)c(C)o3)CC2)c1 | 0.02593%
* COc1cc(CNC(=O)Nc2cc(C(F)(F)F)c[nH]c2=O)ccn1 | -10.73%
* COc1ccc2c(ccn2CCC(=O)O)c1 | -5.021%
* CC(C)C1=NOC(c2nc(Cc3ccccc3)no2)C1 (centres undefined) | 10.21%
* O=C(O)C(F)(F)F.O=C(O)C(F)(F)F.[H][C@@]12COC[C@]1(CNC(=O)c1ccno1)CN(Cc1cccc(C)n1)C2 | 1.367%
* CC(CNC(=O)CCc1ccco1)N1CCc2sccc2C1 (centres undefined) | 5.238%